Measured values from paper PMC11435022 (Pathogens, 2024).
Like-named read-outs stand apart in the source and are kept apart here.

Columns and labels:
[1] = peptide 100 μg/mL, average of three scans
MRSA T144 [2] = conditions: DCFH-DA 10 µM, peptide 0, 8, 64, 128 μg/mL, 1 h
E. coli B2 [3] = conditions: for bacterial growth at sub-MICs, result in words: during 12 h; for bacterial growth at MIC, result in words: peptide at MIC, within 12 h
MRSA T144 [4] = conditions: for bacterial growth at 50% of the MIC, result in words: later growth climbs sharply, approaching the drug-free group; for bacterial growth at MIC, result in words: peptide at MIC, within 12 h
E. coli B2 [5] = conditions: DiSC3(5) 0.5 µM, peptide 0–128 μg/mL, 37 °C, 1 h
E. coli B2 [6] = conditions: DCFH-DA 10 µM, peptide 0, 8, 64, 128 μg/mL, 1 h
MRSA T144 and E. coli B2 = conditions: 10-fold MIC, 12 h, stationary-phase cells in M9 medium; both strains; three independent experiments
MRSA T144 [7] = conditions: DiSC3(5) 0.5 µM, peptide 0–128 μg/mL, 37 °C, 1 h

Row | Structure (SMILES) | Beta content (CD) ([1]; 50% TFEA) | Helix content (CD) ([1]; 50% TFEA) | Random content (CD) ([1]; 50% TFEA) | Turn content (CD) ([1]; 50% TFEA) | Beta content (CD) ([1]; LPS 50 µM) | Helix content (CD) ([1]; LPS 50 µM) | Random content (CD) ([1]; LPS 50 µM) | Turn content (CD) ([1]; LPS 50 µM) | Beta content (CD) ([1]; PBS 10 mM pH 7.4) | Helix content (CD) ([1]; PBS 10 mM pH 7.4) | Random content (CD) ([1]; PBS 10 mM pH 7.4) | Turn content (CD) ([1]; PBS 10 mM pH 7.4) | Beta content (CD) ([1]; SDS 50 mM) | Helix content (CD) ([1]; SDS 50 mM) | Random content (CD) ([1]; SDS 50 mM) | Turn content (CD) ([1]; SDS 50 mM) | ROS level (DCFH-DA fluorescence), result in words (MRSA T144 [2]) | bacterial growth at sub-MICs, result in words (E. coli B2 [3]) | bacterial growth at MIC, result in words (E. coli B2 [3]) | bacterial growth at 50% of the MIC, result in words (MRSA T144 [4]) | other results
1 | CC(C)C[C@H](NC(=O)[C@H](Cc1c[nH]c2ccccc12)NC(=O)[C@@H](NC(=O)[C@H](CC(C)C)NC(=O)[C@@H]1CCCN1C(=O)[C@@H](N)Cc1ccccc1)[C@@H](C)O)C(=O)N[C@@H](CCCCN)C(=O)N[C@@H](Cc1c[nH]c2ccccc12)C(=O)N[C@@H](Cc1c[nH]c2ccccc12)C(=O)N[C@@H](CCCCN)C(=O)N[C@@H](Cc1c[nH]c2ccccc12)C(=O)N[C@@H](CCCCN)C(=O)N[C@@H](CCCCN)C(N)=O [FK13] | 0 | 67 | 33 | 0 | 35.2 | 16.4 | 36.8 | 11.6 | 51.1 | 1.5 | 42.1 | 5.3 | 0 | 76.9 | 23.1 | 0 | induced ROS generation in a dose-dependent manner | completely restricted | almost no progress in bacterial growth | completely restricted within the time frame of 0 to 4 h | bacterial growth at MIC, result in words (MRSA T144 [4]): almost no progress in bacterial growth; membrane potential (DiSC3(5) fluorescence), result in words (E. coli B2 [5]): increased fluorescence intensity in a concentration-dependent manner; ROS level (DCFH-DA fluorescence), result in words (E. coli B2 [6]): induced ROS generation in a dose-dependent manner; CFUs reduction (MRSA T144 and E. coli B2): 2–5 log10; membrane potential (DiSC3(5) fluorescence), result in words (MRSA T144 [7]): increased fluorescence intensity in a concentration-dependent manner
2 | CC[C@H](C)[C@H](NC(=O)[C@H](CCSC)NC(=O)[C@H](CCCCN)NC(=O)[C@H](C)NC(=O)[C@H](CCSC)NC(=O)[C@H](Cc1ccc(O)cc1)NC(=O)[C@H](CCCNC(=N)N)NC(=O)[C@@H](NC(=O)[C@H](CC(C)C)NC(=O)[C@H](CCCNC(=N)N)NC(=O)[C@H](CC(C)C)NC(=O)[C@@H](N)Cc1ccc(O)cc1)[C@@H](C)CC)C(N)=O [YI12] | 0 | 20.6 | 30.5 | 48.9 | 0 | 16.7 | 45 | 38.3 | 21.3 | 3.6 | 56 | 19.1 | 0 | 26.4 | 40.4 | 33.2 | induced ROS generation in a dose-dependent manner | completely restricted | almost no progress in bacterial growth | completely restricted within the time frame of 0 to 4 h | bacterial growth at MIC, result in words (MRSA T144 [4]): almost no progress in bacterial growth; membrane potential (DiSC3(5) fluorescence), result in words (E. coli B2 [5]): increased fluorescence intensity in a concentration-dependent manner; ROS level (DCFH-DA fluorescence), result in words (E. coli B2 [6]): induced ROS generation in a dose-dependent manner; membrane potential (DiSC3(5) fluorescence), result in words (MRSA T144 [7]): increased fluorescence intensity in a concentration-dependent manner
